Among the data in the supplement of paper PMC12819154, “High-throughput peptide-centric local stability assay extends protein–ligand identification to membrane proteins, tissues and bacteria” (Nature Structural & Molecular Biology, 2025) are log2 fold change values, retold here.

Amino acid sequences for entries named in this document (tags omitted). A change or cut given only in a name is not applied to a line headed by its entry.
UniProt Q92804: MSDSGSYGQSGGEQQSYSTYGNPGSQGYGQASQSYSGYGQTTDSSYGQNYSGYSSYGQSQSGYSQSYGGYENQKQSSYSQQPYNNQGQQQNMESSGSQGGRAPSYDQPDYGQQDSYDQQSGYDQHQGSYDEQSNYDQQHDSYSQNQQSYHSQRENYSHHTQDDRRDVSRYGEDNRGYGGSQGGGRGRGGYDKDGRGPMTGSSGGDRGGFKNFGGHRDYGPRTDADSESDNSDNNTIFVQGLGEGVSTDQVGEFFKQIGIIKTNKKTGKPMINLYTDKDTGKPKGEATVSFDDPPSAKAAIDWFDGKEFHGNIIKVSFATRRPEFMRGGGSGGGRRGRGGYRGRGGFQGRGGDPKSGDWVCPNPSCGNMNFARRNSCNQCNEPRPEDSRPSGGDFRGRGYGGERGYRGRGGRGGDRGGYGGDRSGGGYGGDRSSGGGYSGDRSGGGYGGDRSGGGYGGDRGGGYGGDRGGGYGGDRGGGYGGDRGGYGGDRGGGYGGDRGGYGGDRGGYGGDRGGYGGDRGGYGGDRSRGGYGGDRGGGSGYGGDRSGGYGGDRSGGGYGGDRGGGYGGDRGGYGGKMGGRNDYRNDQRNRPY
UniProt Q8TDQ7: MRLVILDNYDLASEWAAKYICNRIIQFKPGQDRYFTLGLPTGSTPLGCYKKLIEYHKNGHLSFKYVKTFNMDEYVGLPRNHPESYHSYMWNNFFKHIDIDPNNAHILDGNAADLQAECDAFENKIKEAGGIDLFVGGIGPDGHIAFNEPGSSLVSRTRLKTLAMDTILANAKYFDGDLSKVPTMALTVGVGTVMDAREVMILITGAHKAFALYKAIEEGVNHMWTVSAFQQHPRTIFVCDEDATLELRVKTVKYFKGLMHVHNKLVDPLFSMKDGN
UniProt Q92599: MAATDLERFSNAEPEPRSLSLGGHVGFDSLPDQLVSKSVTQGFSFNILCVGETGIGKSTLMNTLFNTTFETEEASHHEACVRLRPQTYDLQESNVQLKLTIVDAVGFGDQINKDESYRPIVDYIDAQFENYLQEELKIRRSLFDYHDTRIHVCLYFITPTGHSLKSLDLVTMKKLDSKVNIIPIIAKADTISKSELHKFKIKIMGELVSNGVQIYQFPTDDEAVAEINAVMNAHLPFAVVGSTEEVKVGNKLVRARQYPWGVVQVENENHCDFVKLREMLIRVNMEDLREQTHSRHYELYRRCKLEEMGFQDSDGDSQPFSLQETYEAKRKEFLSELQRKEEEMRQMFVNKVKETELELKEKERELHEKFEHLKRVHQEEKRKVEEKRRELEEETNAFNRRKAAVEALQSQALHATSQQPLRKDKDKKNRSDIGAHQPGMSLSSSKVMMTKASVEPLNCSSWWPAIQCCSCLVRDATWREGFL
UniProt Q8TC44: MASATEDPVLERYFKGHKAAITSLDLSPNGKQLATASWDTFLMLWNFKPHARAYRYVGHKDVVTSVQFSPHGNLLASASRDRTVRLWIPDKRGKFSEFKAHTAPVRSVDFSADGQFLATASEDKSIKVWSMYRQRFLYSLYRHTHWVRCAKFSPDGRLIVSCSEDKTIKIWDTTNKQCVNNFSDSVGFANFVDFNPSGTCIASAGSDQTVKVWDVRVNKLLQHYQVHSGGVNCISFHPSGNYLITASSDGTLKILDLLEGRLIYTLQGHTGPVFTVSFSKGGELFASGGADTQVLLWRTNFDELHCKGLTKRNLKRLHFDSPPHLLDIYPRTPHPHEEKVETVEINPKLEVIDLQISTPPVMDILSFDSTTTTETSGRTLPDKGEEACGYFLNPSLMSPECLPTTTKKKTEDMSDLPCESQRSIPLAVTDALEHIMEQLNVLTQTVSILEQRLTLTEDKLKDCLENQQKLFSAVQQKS
UniProt Q8WYA0: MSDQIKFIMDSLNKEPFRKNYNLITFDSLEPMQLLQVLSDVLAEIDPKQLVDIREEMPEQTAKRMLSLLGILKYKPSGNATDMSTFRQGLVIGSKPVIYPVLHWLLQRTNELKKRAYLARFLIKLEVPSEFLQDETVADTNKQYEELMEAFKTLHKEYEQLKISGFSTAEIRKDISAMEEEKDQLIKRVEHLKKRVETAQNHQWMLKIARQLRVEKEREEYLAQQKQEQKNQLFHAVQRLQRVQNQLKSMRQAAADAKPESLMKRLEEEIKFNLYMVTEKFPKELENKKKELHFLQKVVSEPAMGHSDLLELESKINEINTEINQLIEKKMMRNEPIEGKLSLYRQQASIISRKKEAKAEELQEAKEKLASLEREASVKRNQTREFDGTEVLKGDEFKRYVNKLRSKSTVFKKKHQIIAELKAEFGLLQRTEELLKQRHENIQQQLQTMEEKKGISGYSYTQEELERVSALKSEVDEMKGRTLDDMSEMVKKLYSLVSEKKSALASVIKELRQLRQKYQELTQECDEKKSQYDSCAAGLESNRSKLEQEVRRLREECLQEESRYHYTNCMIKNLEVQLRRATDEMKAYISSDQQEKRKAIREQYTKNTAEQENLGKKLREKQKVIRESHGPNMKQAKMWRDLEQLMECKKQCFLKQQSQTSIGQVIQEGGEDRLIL
UniProt Q8WW12: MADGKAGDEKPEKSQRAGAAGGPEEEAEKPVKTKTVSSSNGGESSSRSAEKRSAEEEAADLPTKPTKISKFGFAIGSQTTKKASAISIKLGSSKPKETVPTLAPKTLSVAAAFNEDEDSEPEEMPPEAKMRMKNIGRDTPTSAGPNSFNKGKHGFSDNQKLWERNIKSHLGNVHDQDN
UniProt Q8WUB8: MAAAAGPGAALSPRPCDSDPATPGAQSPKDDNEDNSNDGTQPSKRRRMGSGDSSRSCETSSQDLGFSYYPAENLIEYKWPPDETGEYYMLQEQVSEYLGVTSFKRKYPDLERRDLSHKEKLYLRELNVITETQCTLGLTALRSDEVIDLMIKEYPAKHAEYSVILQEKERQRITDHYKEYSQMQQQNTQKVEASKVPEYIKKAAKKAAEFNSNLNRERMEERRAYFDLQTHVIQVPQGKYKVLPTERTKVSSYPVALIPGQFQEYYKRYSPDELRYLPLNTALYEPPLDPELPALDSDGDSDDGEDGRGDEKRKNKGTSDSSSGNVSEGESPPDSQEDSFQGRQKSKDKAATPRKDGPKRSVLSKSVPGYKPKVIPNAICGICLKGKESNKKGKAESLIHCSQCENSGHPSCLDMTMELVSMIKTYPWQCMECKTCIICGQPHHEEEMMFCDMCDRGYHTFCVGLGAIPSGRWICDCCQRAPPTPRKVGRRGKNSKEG
UniProt Q8TBZ3: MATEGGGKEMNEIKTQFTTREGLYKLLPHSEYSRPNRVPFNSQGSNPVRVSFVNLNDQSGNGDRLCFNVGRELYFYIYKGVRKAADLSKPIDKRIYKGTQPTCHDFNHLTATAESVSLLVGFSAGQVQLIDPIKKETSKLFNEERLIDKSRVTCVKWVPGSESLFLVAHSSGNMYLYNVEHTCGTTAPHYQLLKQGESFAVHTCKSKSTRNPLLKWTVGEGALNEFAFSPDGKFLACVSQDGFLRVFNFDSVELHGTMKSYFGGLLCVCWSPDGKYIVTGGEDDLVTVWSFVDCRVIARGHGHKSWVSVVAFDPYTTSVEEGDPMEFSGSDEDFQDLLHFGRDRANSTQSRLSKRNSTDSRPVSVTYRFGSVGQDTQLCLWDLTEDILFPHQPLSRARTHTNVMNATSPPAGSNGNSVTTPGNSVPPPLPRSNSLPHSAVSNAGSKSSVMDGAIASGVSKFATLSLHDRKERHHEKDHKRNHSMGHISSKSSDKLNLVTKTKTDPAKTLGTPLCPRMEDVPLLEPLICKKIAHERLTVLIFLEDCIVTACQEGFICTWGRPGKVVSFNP
UniProt Q8WUA4: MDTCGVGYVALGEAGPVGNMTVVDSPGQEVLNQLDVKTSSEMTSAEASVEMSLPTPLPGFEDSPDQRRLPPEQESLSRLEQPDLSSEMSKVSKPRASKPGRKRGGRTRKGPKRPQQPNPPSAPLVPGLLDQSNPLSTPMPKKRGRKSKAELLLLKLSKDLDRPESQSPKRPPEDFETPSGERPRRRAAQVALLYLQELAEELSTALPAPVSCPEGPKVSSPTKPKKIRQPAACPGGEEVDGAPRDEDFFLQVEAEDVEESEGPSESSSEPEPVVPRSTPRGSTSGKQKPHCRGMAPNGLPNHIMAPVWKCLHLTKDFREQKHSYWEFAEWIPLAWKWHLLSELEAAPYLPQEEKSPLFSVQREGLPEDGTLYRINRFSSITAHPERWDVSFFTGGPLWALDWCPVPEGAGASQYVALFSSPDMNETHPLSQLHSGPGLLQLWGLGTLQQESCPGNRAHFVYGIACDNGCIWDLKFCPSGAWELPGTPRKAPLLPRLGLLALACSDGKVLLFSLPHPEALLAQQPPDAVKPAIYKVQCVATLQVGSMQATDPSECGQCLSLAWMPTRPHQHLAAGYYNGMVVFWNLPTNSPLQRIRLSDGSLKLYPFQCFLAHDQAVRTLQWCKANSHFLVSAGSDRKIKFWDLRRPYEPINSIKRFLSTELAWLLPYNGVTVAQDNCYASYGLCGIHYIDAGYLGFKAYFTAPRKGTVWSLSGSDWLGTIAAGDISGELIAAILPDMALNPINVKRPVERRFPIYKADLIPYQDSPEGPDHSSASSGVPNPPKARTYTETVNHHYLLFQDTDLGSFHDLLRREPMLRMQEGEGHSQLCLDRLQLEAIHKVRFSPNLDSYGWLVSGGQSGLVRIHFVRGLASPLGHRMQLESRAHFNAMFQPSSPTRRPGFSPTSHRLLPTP
UniProt Q8WUX2: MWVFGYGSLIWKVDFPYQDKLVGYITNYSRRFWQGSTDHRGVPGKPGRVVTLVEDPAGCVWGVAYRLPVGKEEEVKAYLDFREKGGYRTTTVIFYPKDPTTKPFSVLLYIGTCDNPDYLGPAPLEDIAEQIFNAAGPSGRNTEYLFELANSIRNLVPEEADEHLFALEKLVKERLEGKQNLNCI
UniProt Q92597: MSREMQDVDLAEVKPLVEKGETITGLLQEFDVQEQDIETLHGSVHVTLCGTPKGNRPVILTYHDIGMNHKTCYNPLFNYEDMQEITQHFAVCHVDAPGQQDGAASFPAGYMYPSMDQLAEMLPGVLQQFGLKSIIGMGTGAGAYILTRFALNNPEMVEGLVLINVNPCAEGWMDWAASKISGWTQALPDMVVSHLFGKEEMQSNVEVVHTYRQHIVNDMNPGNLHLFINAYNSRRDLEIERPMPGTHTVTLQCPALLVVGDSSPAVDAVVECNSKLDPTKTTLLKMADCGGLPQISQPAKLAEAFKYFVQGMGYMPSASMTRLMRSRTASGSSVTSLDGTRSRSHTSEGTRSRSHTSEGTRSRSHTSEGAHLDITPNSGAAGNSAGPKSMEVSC
UniProt Q8WTR7: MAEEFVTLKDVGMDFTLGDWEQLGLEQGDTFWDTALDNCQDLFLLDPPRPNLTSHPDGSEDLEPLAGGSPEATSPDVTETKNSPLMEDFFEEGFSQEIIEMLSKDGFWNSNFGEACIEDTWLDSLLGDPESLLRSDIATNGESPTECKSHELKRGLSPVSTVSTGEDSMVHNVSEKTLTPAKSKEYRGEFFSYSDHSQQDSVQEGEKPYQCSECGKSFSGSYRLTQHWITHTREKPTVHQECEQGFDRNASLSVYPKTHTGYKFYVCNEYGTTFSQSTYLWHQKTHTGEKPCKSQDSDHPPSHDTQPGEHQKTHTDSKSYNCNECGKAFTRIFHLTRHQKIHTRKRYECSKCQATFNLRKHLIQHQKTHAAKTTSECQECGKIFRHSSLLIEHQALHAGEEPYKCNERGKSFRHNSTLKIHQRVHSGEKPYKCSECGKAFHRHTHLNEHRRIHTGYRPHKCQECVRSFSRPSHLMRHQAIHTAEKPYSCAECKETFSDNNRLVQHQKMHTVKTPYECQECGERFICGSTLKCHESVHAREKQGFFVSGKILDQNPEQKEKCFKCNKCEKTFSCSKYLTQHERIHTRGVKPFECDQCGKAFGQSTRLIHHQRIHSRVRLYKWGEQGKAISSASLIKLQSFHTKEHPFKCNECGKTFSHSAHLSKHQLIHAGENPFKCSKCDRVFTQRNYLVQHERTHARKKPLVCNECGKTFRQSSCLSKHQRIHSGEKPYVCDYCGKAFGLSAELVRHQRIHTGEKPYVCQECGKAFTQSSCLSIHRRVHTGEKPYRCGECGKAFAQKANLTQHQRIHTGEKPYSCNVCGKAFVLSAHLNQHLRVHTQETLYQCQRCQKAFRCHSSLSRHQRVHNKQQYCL
UniProt Q8TBN0: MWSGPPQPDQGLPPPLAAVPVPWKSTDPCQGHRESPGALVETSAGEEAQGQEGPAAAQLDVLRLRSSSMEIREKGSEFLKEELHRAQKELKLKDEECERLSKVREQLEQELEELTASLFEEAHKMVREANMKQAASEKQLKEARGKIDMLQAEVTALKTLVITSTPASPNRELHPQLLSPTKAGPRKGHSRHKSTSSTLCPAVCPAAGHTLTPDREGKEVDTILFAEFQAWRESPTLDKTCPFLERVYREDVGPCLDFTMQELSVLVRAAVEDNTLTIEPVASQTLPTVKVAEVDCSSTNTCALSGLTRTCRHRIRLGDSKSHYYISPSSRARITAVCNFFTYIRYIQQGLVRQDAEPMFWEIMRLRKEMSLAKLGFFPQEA

This is one part of the list. Most entries show no effect beyond the scatter of the controls.

Compound in this assay: CN[C@@H]1C[C@H]2O[C@@](C)([C@@H]1OC)n1c3ccccc3c3c4c(c5c6ccccc6n2c5c31)C(=O)NC4 [staurosporine]
Description: log2 fold change of tryptic peptide abundance, ligand vs vehicle (limited proteolysis) (log2 ratio); higher = more trypsin-susceptible (destabilized). Conditions: ligand concentration: 20 uM; sample: K562 cleared lysate; digestion: 4 min, 22 C (HT-PELSA RT4min, Orbitrap Astral).
Turning to “TAF15 (peptide sequence: GGYDKDGR, peptide start residue: 188) (UniProt Q92804)”, the log2 fold change is -0.295.

As for “GNPDA2 (peptide sequence: TLAMDTILANAK, peptide start residue: 161) (UniProt Q8TDQ7)”, the log2 fold change is -0.101.

For the target “HSD17B8 (peptide sequence: AGVIGLTQTAAR, peptide start residue: 174) (UniProt Q92506)”, the log2 fold change stood at 0.0929.

With “CCDC12 (peptide sequence: KPDWDLK, peptide start residue: 111) (UniProt Q8WUD4)”, the log2 fold change is -0.207.

With “UniProt Q92599 (peptide sequence: ELEEETNAFNR, peptide start residue: 390)”, the log2 fold change was -0.542.

As to “POC1B (peptide sequence: TPHPHEEKVETVEINPK, peptide start residue: 332) (UniProt Q8TC44)”, the log2 fold change was 0.576.

On to “FBF1 (peptide sequence: QIGDQEGPRPAR, peptide start residue: 227) (UniProt Q8TES7)”, for which the log2 fold change was -0.57.

“UniProt Q8WV93 (peptide sequence: NIPQFTLANR, peptide start residue: 375)”: the log2 fold change was -0.233.

“CORO2A (peptide sequence: RGLDVSSCEIFR, peptide start residue: 328) (UniProt Q92828)”: the log2 fold change came to 0.254.

Consider “MITD1 (peptide sequence: AVELDSESR, peptide start residue: 22) (UniProt Q8WV92)”, for which the log2 fold change was -0.337.

On to “IFT81 (peptide sequence: SKLEQEVR, peptide start residue: 544) (UniProt Q8WYA0)”, for which the log2 fold change amounted to 0.342.

With “PCNP (peptide sequence: AGAAGGPEEEAEKPVK, peptide start residue: 17) (UniProt Q8WW12)”, the log2 fold change was -0.124.

On to “RNASEH2C (peptide sequence: FTLWGLETIPGPDAK, peptide start residue: 129) (UniProt Q8TDP1)”, for which the log2 fold change was 0.204.

“RB1CC1 (peptide sequence: SLLEQETENLR, peptide start residue: 1091) (UniProt Q8TDY2)”: the log2 fold change is 0.808.

“PARD3B (peptide sequence: VGELTQQALQR, peptide start residue: 23) (UniProt Q8TEW8)”: the log2 fold change amounted to 0.199.

Take “DCAF4 (peptide sequence: YGIINLQSLK, peptide start residue: 199) (UniProt Q8WV16)”: the log2 fold change is -0.401.

As for “PHF10 (peptide sequence: VPEYIKK, peptide start residue: 196) (UniProt Q8WUB8)”, the log2 fold change was 0.26.

On to “WDR20 (peptide sequence: TLGTPLCPR, peptide start residue: 508) (UniProt Q8TBZ3)”, for which the log2 fold change was -0.305.

With “GTF3C2 (peptide sequence: GMAPNGLPNHIMAPVWK, peptide start residue: 293) (UniProt Q8WUA4)”, the log2 fold change is -0.812.

For the target “CHAC2 (peptide sequence: NLVPEEADEHLFALEK, peptide start residue: 154) (UniProt Q8WUX2)”, the log2 fold change stood at 0.108.

As for “NDRG1 (peptide sequence: EMQDVDLAEVKPLVEK, peptide start residue: 4) (UniProt Q92597)”, the log2 fold change was -0.434.

Turning to “UniProt Q92616 (peptide sequence: SKADYTSHLR, peptide start residue: 2182)”, the log2 fold change worked out at 0.323.

In the case of “UniProt Q8WTR7 (peptide sequence: FICGSTLK, peptide start residue: 524)”, the log2 fold change is -0.0163.

On to “PREX1 (peptide sequence: VAEEDQEDSGHDTMSYR, peptide start residue: 1151) (UniProt Q8TCU6)”, for which the log2 fold change was -0.177.

As to “RAB3IL1 (peptide sequence: SHYYISPSSR, peptide start residue: 322) (UniProt Q8TBN0)”, the log2 fold change was found to be 0.433.

Turning to “NT5C (peptide sequence: RRFPEEPHVPLEQR, peptide start residue: 28) (UniProt Q8TCD5)”, the log2 fold change is 0.212.

Turning to “DENND1A (peptide sequence: DPKLREDR, peptide start residue: 480) (UniProt Q8TEH3)”, the log2 fold change worked out at 0.153.

In the case of “DPF1 (peptide sequence: EAIEHCR, peptide start residue: 18) (UniProt Q92782)”, the log2 fold change is -0.635.
